This passage reports binding results from paper PMC9438803 (Life Science Alliance, 2021).

By UniProt entry, the sequences of proteins in these tests, tags left out. Where a name states a change or a piece, a line headed by the entry shows the natural chain unless it says otherwise. Residues count along the entry.
UniProt P11388: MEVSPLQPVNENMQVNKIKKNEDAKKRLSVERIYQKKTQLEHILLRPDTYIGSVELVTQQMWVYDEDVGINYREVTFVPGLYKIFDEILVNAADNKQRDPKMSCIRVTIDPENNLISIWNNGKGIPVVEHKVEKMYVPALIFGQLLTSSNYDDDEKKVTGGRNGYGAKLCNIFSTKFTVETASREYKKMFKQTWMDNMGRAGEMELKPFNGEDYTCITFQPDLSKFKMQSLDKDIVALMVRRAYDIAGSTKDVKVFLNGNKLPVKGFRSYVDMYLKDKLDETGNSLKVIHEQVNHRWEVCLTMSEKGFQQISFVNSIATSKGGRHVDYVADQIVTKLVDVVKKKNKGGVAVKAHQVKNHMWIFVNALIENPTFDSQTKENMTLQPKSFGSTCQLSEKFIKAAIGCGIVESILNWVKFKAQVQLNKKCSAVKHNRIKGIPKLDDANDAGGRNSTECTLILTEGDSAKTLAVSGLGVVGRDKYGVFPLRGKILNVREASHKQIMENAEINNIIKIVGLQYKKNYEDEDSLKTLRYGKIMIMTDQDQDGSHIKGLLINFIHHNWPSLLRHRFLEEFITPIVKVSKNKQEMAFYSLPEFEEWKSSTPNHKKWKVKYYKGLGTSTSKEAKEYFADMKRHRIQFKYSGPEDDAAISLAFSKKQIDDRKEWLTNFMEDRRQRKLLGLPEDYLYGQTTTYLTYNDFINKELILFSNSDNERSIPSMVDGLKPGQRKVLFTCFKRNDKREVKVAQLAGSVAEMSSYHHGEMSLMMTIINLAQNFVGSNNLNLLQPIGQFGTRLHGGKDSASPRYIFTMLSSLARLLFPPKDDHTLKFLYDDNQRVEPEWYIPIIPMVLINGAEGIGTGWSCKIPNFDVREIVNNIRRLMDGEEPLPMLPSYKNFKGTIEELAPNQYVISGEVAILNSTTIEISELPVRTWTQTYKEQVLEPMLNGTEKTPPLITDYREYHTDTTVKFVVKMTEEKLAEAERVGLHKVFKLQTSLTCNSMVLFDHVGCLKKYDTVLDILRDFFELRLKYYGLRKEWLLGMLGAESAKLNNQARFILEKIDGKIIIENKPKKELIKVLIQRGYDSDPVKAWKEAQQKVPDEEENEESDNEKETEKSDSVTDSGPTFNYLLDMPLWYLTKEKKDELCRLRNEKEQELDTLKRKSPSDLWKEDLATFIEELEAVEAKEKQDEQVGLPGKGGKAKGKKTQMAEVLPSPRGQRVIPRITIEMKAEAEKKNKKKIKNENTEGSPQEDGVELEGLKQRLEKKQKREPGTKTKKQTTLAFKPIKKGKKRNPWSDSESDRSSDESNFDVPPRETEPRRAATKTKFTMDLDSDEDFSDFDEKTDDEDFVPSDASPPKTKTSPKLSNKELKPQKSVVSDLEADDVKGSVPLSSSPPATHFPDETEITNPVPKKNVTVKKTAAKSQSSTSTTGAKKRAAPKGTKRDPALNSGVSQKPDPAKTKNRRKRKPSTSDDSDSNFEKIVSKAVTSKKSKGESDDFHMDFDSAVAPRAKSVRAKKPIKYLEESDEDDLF
recombinant human Topoisomerase 2a lacking the unstructured C-terminal domain (1-1,217): residues 1-1217 of P11388
UniProt Q9GZS1: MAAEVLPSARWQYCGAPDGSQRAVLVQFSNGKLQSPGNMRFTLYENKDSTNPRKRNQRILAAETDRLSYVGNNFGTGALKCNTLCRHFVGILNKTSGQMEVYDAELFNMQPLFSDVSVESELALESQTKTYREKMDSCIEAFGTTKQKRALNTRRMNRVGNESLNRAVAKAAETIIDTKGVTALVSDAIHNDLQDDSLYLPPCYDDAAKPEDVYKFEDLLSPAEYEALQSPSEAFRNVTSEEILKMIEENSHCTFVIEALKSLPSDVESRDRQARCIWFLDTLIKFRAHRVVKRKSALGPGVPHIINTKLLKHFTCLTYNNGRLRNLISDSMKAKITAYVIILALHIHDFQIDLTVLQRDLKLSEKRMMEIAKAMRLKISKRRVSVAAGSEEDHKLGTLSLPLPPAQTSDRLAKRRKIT
UniProt O15160: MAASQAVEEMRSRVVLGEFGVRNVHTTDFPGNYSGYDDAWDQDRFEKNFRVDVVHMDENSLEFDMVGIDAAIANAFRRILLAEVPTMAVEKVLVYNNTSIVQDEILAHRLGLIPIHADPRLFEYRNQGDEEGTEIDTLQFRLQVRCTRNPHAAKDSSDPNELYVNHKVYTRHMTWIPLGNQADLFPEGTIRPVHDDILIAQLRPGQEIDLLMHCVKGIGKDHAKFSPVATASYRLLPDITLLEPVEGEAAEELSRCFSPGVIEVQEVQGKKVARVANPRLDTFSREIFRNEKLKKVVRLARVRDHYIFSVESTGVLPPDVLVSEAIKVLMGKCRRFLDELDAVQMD
UniProt P0DPB6: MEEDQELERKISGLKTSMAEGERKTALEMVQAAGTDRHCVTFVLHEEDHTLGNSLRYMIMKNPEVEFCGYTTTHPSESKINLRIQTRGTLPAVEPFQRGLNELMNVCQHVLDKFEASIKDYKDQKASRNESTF
UniProt O15446: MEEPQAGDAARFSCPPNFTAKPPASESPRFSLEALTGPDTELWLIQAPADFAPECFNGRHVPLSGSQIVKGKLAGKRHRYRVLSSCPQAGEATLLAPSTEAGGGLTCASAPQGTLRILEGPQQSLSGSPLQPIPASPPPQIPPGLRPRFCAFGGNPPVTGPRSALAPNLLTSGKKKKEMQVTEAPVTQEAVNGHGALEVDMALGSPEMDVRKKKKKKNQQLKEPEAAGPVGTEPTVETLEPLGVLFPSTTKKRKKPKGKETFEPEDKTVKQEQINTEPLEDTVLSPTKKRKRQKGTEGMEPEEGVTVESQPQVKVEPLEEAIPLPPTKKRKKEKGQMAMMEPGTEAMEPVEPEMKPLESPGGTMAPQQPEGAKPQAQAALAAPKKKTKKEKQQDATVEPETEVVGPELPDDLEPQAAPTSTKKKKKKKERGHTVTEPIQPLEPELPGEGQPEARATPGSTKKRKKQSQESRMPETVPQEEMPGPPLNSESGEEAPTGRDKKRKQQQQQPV

No constants are given. Whether binding was seen depends on the method and setting. For some of these results: In cells and extracts the contact can be indirect. Some entries that bind do so weakly or less than the wild type.

Test [1] deals with Topoisomerase 2a, endogenous in U2OS nuclear extract (human (endogenous in U2OS)) (UniProt P11388). In words: co-IP; U2OS nuclear extract diluted to 150 mM KCl and treated with benzonase; anti-Top2a antibody cross-linked to Protein A magnetic beads, 1 h at 4°C; Western blot with anti-UBF, anti-RPA49 and anti-Top2a. (Immunoblotting shows a protein as a band on a membrane.)
For test [2], the target named is RNA polymerase I subunit RPA1 with genomic C-terminal sfGFP fusion (human (endogenous in HeLa)) (UniProt O95602). Nature of the test: affinity purification by RPA1-sfGFP, subunits seen in the cryo-EM density; hPol I purified from HeLa POLR1A-sfGFP lysate by RPA1-sfGFP; subunits with connected density in the reconstruction, contacts with RPA1 not told.
The target of test [3] is recombinant human Topoisomerase 2a lacking the unstructured C-terminal domain (1-1,217) (human) (UniProt P11388). In words: native gel or EMSA; blue-native PAGE, 3-12% gradient gel; five times molar excess of MBP-only or tagged dock II over Top2a ΔC (1-1,217); 20 mM Hepes pH 8.0, 150 mM NaCl, 50 mM KCl, 1 mM MgCl2, 2% glycerol, 2 mM β-mercaptoethanol; 30 min at room temperature; Coomassie stained; both purified. A general note: Mobility shift assays separate free from complexed probe on a gel.

Test [4] concerns the target recombinant human RPA49 full length with N-terminal 6xHis-tag (human) (UniProt Q9GZS1). In words: co-purification (Ni-NTA by the tag on one chain, MonoS, size exclusion); human RPA49 with N-terminal 6xHis-tag and untagged RPA34 co-expressed in E. coli; Ni-NTA with 1 M NaCl and ATP washes, MonoS, Superdex200 in 50 mM Tris pH 7.5, 150 mM NaCl, 5 mM DTT. On the technique in general: In gel filtration, larger molecules generally elute earlier.

As for “RNA polymerase I subunit RPA49, endogenous in U2OS nuclear extract (from UniProt Q9GZS1 1-419)”, the binding result in test [1] is given as “binds”. As for “RNA polymerases I and III subunit RPAC1 (from UniProt O15160 1-346)”, in test [2], the binding entry was “binds”.

On to “RNA polymerases I and III subunit RPAC2 (from UniProt P0DPB6 1-133)”, for which the binding entry in test [2] is reported as “binds”. Consider “human dock II domain, minimal fragment (RPA1 1081-1146) with C-terminal His-MBP-tag (from UniProt O95602 1081-1146) (domain or fragment)”, for which, in test [3], the binding result is listed as “no binding (tested: Five times molar excess)”.

For “recombinant human RPA34 full length, untagged (from UniProt O15446 1-510)”, the binding result in test [4] is “binds”. Same read-out and setting: the entry for “recombinant human RPA34 residues 1-343, untagged (from UniProt O15446 1-343) (domain or fragment)” is “binds”.

B1: human dock II domain, full-length fragment (RPA1 1060-1155) with C-terminal His-MBP-tag (domain or fragment, UniProt O95602 1060-1155, looked up)
chain: ADPKKALHHFRAIKKWQSKHPNTLLRRGAFLSYSQKIQEAVKALKLESENRNGRSPGTQEMLRMWYELDEESRRKYQKKAAACPDPSLSVWRPDIY
notes: human RPA1 residues 1060-1155, the dock II domain (HMG box-like foot insertion); The results call it MBP-dock II; the methods say that the His-MBP tag is C-terminal; also called full-length MBP-dock II; dock II-MBP fusion; source: E. coli BL21 (DE3) RIL, purified (Ni-NTA, Superdex 75); not shown: His, C-terminal, kept; MBP, C-terminal, kept
With B1, the binding entry in test [3] was “binds weakly”.
